This passage reports binding results from publication PMC11996864, “A small-molecule inhibitor of BCL10-MALT1 interaction abrogates progression of diffuse large B cell lymphoma” (The Journal of Clinical Investigation, 2025).

The chains behind the UniProt entries cited, without tags or fusion partners. Where a name states a change or a piece, a line headed by the entry shows the natural chain unless it says otherwise.
UniProt P25098: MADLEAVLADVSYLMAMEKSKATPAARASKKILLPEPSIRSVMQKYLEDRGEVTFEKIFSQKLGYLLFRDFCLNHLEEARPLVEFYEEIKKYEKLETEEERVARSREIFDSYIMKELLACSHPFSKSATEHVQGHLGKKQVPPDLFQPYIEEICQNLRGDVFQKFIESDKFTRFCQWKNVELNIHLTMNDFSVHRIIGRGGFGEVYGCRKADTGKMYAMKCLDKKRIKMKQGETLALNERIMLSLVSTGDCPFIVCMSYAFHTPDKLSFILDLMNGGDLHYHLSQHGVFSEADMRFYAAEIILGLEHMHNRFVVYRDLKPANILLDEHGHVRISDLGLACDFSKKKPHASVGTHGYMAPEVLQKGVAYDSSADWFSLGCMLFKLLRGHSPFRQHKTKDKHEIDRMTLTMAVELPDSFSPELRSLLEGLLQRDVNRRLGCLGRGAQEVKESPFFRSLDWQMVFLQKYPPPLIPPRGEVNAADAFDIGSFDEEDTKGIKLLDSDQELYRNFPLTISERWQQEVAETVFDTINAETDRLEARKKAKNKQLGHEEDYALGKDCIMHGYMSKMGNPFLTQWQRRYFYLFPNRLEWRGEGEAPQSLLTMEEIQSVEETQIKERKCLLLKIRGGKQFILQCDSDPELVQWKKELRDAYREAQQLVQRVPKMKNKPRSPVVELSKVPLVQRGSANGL
UniProt Q9UDY8: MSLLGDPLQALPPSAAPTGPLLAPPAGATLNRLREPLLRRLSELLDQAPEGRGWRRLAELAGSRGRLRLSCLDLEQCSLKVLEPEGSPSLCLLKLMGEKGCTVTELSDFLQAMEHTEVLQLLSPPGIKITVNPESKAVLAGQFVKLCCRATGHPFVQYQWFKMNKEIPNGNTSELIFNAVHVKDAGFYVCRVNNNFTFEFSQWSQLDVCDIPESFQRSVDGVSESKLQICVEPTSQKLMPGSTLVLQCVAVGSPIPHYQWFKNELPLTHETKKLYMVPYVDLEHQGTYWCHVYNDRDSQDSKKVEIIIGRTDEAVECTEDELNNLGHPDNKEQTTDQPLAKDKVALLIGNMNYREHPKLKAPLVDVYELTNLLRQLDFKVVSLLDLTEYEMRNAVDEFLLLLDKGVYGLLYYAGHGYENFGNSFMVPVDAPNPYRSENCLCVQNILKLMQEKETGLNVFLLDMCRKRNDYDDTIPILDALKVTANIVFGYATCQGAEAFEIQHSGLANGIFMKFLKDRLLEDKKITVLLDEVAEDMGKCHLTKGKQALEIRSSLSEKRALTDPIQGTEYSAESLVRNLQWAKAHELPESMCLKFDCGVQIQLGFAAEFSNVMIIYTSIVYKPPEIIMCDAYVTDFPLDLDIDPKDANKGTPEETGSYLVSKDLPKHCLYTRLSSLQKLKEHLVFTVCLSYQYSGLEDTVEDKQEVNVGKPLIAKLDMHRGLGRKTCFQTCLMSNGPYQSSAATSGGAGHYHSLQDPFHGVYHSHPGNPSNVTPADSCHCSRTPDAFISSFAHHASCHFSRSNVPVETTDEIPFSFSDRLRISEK

Assay [1] has as its target T1, His-tagged full-length BCL10 protein (UniProt O95999).
T1 sequence: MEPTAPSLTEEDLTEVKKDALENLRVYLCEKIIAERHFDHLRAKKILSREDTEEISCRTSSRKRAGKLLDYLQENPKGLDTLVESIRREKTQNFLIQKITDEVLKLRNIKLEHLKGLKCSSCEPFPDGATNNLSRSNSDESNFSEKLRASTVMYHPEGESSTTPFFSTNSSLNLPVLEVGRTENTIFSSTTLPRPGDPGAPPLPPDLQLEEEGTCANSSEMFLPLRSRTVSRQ
As to the kind of experiment: ELISA; 96-well; His-tagged full-length BCL10 immobilised in wells, exposed to protein in solution (GST-tagged full-length MALT1, detected with anti-MALT1 antibody; GRK2 as specificity control); both purified. On the technique in general: In an ELISA, binding on a coated surface is turned into a signal by an enzyme label.

The next assay addresses T2, Myc-tagged BCL10 (UniProt O95999).
T2 sequence: T1 sequence
As to the kind of experiment: co-IP; HA-tagged MALT1 proteins or fragments with Myc-tagged BCL10 (or Myc-tagged RICK, MAVS), expressed in transiently transfected 293T cells.

These are yes or no findings as the source states them, for the method shown. For some assays here: In cells and extracts the contact can be indirect. Some results given as binding are weak or reduced against the parent protein; the word gives no strength. Sequences can lack the tags named with a protein.

For “G protein–coupled receptor kinase 2 (from UniProt P25098 1-689) (enzyme)”, in assay [1], the binding entry was “no binding”.
On to “GST-tagged recombinant human full-length MALT1 protein (from UniProt Q9UDY8 1-824)”, for which the binding entry in assay [1] is on record as “binds”.
As to “HA-tagged full-length (FL) MALT1 (from UniProt Q9UDY8 1-824)”, the binding result in the assay with Myc-tagged BCL10 is listed as “binds”.
As for “HA-tagged full-length MALT1 V81R (from UniProt Q9UDY8 1-824)”, the binding result with Myc-tagged BCL10 was “binds”.
The same measure, in the same setting: under “HA-tagged full-length MALT1 V189R (from UniProt Q9UDY8 1-824)” stands “binds weakly”.
